# Experimental data reported in PMC6925144, “A prospective compound screening contest identified broader inhibitors for Sirtuin 1” (Scientific Reports, 2019).
# Amino acid sequences for entries named in this document (tags omitted). Residues count along the entry.
# UniProt Q96EB6, 2-747 limits assumed: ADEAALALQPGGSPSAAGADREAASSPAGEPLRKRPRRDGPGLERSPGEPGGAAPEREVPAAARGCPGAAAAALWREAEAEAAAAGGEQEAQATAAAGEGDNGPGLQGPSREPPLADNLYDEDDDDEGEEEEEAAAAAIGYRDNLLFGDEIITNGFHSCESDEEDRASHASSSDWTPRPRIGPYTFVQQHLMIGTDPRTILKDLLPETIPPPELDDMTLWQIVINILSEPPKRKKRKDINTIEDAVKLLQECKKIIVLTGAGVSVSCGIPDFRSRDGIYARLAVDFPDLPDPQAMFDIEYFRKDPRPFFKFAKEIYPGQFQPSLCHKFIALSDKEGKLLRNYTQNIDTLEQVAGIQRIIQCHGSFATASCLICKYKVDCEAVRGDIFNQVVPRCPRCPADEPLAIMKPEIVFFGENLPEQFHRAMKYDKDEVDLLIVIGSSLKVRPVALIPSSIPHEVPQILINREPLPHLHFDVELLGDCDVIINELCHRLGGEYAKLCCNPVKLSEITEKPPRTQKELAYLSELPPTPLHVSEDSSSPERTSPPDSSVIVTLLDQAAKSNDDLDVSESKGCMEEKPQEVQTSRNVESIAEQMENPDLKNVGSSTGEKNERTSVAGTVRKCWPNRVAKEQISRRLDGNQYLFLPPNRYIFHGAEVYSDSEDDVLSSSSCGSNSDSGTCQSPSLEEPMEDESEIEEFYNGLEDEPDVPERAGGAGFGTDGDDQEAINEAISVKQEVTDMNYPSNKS
# The full ranking holds about 3,200 compounds; the median of “TSA(with NAD+) / Primary screening (TSA) / delta Tm (K)” is about -0.04, and the highest 2% start at about 0.37. This is one part of the list.
# Target: NAD-dependent deacetylase Sirtuin 1 (human, UniProt Q96EB6)
# Experiment: primary screen, delta tm
# Set-up: single well (n = 1, as 'the same TSA')
# Settings: 10 µM
row,Structure (SMILES),TSA(with NAD+) / Primary screening (TSA) / delta Tm (K)
1,CCOC(=O)c1sc(N(Cc2ccccc2)C(=O)CSc2nnc(C3CC3)n2N)nc1C,-0.29
2,COc1ccc(C(C)=O)c2ccccc12,-0.26
3,CCCOc1cccc(C2C(C(=O)c3ccc(OC)cc3)=C(O)C(=O)N2CCCN2CCOCC2)c1 (stereo not shown),-0.13
4,NC(=O)c1ncn(-c2ccncc2)c1N,-0.06
5,O=C(CCCN1C(=O)c2cccc3cccc(c23)C1=O)NNC(=O)CC12CC3CC(CC(C3)C1)C2,0.05
6,CCC(C)NC(=O)CSc1nnc(-c2c[nH]c3ccccc23)n1Cc1ccco1 (stereo not shown),-0.01
7,COCCCn1ccc(Nc2nc(C)nc3[nH]ccc23)n1,-0.03
8,COc1ccc(C(CNC(=O)C2=COCCO2)c2c[nH]c3ccccc23)cc1 (stereo not shown),-0.16
9,CSc1ncc(C(=O)OCC(N)=O)n1-c1ccccc1,-0.16
10,COc1cccc(-c2nc(CSc3nnc(-c4ccco4)n3Cc3ccccc3)cs2)c1,-0.16
11,O=c1cc(Cn2nnc3ccccc3c2=O)c2cc3c(cc2o1)CCC3,-0.12
12,CS(=O)(=O)c1ccc(NCCNC(=O)C23CC4CC(C2)CC(c2ccccc2)(C4)C3)c([N+](=O)[O-])c1,0.18
13,COc1ccc(-c2cc(C(=O)Nc3cc(Cl)ccc3C#N)c3ccccc3n2)cc1OC,-0.02
14,CC(C)(CNS(=O)(=O)c1ccc(C(N)=O)cc1)c1ccc2c(c1)OCO2,-0.03
15,Cc1cc(C(=O)N2CCN(C(=O)Nc3cccc(NC(=O)c4ccncc4)c3)CC2)c(C)o1,0.09
16,O=C(CSc1nnc(Cc2ccccc2)o1)N1N=C(c2cccs2)CC1c1cccs1 (stereo not shown),0.15
17,Clc1cc(Cl)cc(NC(c2cccnc2)c2ncc[nH]2)c1 (stereo not shown),-0.23
18,CCOc1ccc(C(=O)C2=C(O)C(=O)N(CCCN3CCOCC3)C2c2ccccn2)cc1 (stereo not shown),-0.02
19,CCS(=O)CCN (stereo not shown),-0.15
20,Cc1ccc2nc(-c3ccccc3)c(N)n2c1,0.38
21,COc1ccc(-c2cc(C(=O)Nc3ccc(C(N)=O)cc3)c3ccccc3n2)cc1,0.02

# A few values from the list:
# `CCOc1ccc(C(=O)C2=C(O)C(=O)N(CCCN3CCOCC3)C2c2ccccn2)cc1` (stereo not shown) | TSA(with NAD+) / Primary screening (TSA) / delta Tm (K): -0.02
# `CC(C)(CNS(=O)(=O)c1ccc(C(N)=O)cc1)c1ccc2c(c1)OCO2` | TSA(with NAD+) / Primary screening (TSA) / delta Tm (K): -0.03

# Continued.

row,Structure (SMILES),TSA(with NAD+) / Primary screening (TSA) / delta Tm (K)
1,CN(C(=O)Cc1ccc(-c2ccccc2)cc1)C1CCc2ccccc21 (stereo not shown),-0.13
2,CC(C)(C)c1ccc(OCC(=O)NNC(=O)c2cccnc2O)cc1,0.16
3,CC(=O)Nc1ccc(CNC(=O)c2c(C)[nH]c3ccccc23)cc1,-0.01
4,O=C(CCCCc1c[nH]nn1)Nc1cccn(Cc2ccc(F)cc2)c1=O,0.03
5,O=C(NCc1ccc(N2CCCC2=O)cc1)c1ccc(NC(=O)C2CC2)s1,0.03
6,O=C(NCc1nc2ccccc2[nH]1)/C(=C/c1ccccc1)c1ccccc1,0.06
7,CC(=O)N1CCc2[nH]c3ccc(C)cc3c2C1,-0.14
8,O=C1/C(=C\c2ccc(Br)cc2)CC/C1=C/c1ccccc1OC(F)F,0.05
9,CC(=O)NCc1ccc(-c2csc(NC(=O)C(C)NC(=O)c3cccs3)n2)o1 (stereo not shown),-0.01
10,CC(CN)CO (stereo not shown),-0.11
11,O=C(CN1CCCC1=O)Nc1ccc2nc(S)[nH]c2c1,-0.14
12,Cc1cccc(C(=O)Oc2ccc3oc4ccccc4c3c2)c1,-0.16
13,CC1(c2cccc(C(N)=O)c2)NC(=O)NC1=O (stereo not shown),-0.01
14,CCC(C)c1ccc(C(NC(C)C(=O)Nc2ccc(C(N)=O)cc2)C(C)C)cc1 (stereo not shown),-0.11
15,COC(=O)c1ccc(Cn2ncc3ccccc3c2=O)cc1,-0.01
16,COc1cccc(CNC(=O)COC(=O)CNC(=O)c2ccc3ccccc3c2)c1,-0.03
17,CC(C)OC(=O)CC(Nc1ccc2nnnn2n1)c1ccccc1 (stereo not shown),-0.22
18,NC(=O)N1CCCN(C(=O)c2ccc3c(c2)C(=O)c2ccccc2-3)CC1,-0.14
19,C=CCc1c(C)c(C#N)c2nc3ccccc3n2c1Cl,-0.09
20,O=C(CN1CCN(C(=O)c2ccccc2Nc2ccccc2)CC1)Nc1ccccc1Cl,-0.38
21,COc1ccc2ccccc2c1C=C1C(=O)NC(=S)NC1=O,-0.15

row,Structure (SMILES),TSA(with NAD+) / Primary screening (TSA) / delta Tm (K)
1,CC1CC1C(=O)Nc1ccc(C(=O)NCc2nc3cccnc3[nH]2)cc1 (stereo not shown),-0.13
2,NCC(N)C1CC1 (stereo not shown),-0.21
3,CCOc1ccc(Nc2cc(C)nc3c4c(C)cc(C)nc4nn23)cc1,-0.03
4,CCC(C)N (stereo not shown),-0.01
5,CCC(O)(CC)CN,-0.05
6,CC(C)COc1ccc(C(=O)C2=C(O)C(=O)N(CCN3CCOCC3)C2c2ccc(F)cc2)cc1 (stereo not shown),0.07
7,CN(c1ccccc1)S(=O)(=O)c1cccc(C(=O)Nc2sccc2C(N)=O)c1,0.22
8,CONC(=O)c1c(-c2ccccc2)n(C)c2ccccc12,-0.01
9,Cc1ccc(C2(c3ccc(C)cc3)NC(=O)N(CC(=O)NC34CC5CC(CC(C5)C3)C4)C2=O)cc1,-0.04
10,O=C(CSc1nnc(NCc2ccco2)s1)N(c1ccccc1)C1CCS(=O)(=O)C1 (stereo not shown),-0.12
11,CNc1ncc(C(F)(F)F)cc1Cl,-0.21
12,O=C(O)c1cccc(C(=O)O)n1,0.09
13,C=CCOc1ccc(/C=C/C(=O)NC(Cc2ccccc2)c2nc3ccccc3[nH]2)cc1 (stereo not shown),0.02
14,O=C(NCc1ccccc1O)c1ccc2c(c1)C(=O)c1ccccc1-2,-0.03
15,O=C(NC(Cc1ccccc1)C(=O)N1CCCCCCC1)c1ccccc1 (stereo not shown),-0.14
16,NC(=O)CC1CCN(c2ncnc3cc(Cl)ccc23)CC1,-0.11
17,COC(=O)CC(C)(NC(=O)Nc1ccc(SC(C)(C)C)cc1C)c1ccncc1 (stereo not shown),-0.22
18,COc1ccc(S(=O)(=O)N2CCc3ccccc32)cc1C(=O)NCC12CC3CC(CC(C3)C1)C2,0.09
19,CC(CS(C)=O)C(=O)O (stereo not shown),-0.06
